Measurements from patent US20240189279A1, “IMMUNOMODULATORY COMPOSITIONS AND METHODS OF USE THEREOF” (THE TEXAS A&M UNIVERSITY SYSTEM, priority 2022, published 2024).

Assays:
fecal metabolome = assay: Fecal untargeted metabolomics in WD mice; type: in vivo, mice (male B6 129SF1/J)
liver proteome = assay: Liver untargeted proteomics in WD mice; type: in vivo, mice (male B6 129SF1/J); conditions: WD-100 vs WD groups

O=C([O-])Cc1c[nH]c2ccccc12.[Na+] [I3A, Indole-3-acetate sodium salt]
effect on fecal microbiota composition and metabolome (overall) (fecal metabolome; WD fed mice treated with I3A): minimal effects on the fecal microbiota composition as well as metabolome
fecal metabolome, Hotelling's T2 test of means (centroids) (fecal metabolome; WD-50 vs WD groups): not significantly different
fecal metabolome (PCA of untargeted LC-MS data) (fecal metabolome; WD-100 vs WD groups): largely overlapped
number of significantly enriched KEGG pathways (liver proteome): 5 pathways
